In assay [1] the target is activated Protein C (APC) (human). Nature of the assay: inhibition kinetics with heparin.
The target is the same in assay [2]. Put plainly: bacterial lysate screen, residual APC activity lower than or equal to that with P2KP1′K PCI.

Results are given in words; binding and its absence hold for the method and conditions named. Binding calls can cover weak binding; strength is not graded here.

B1: A22 P2KP1′K PCI (protein)
chain: APSSRRDFTFDLYRALASAAPSQNIFFSPVSISMSLAMLSLGAGSSTKMQILEGLGLNLQKSSEKELHRGFQQLLQELNQPRDGFQLSLGNALFTDLVVDLQDTFVSAMKTLYLADTFPTNFRDSAGAMKQINDYVAKQTKGKIVDLLKNLDSNAVVIMVNYIFFKAKWETSFNHKGTQEQDFYVTSETVVRVPMMSREDQYHYLLDRNLSCRVVGVPYQGNATALFILPSEGKMQQVENGLSEKTLRKWLKMFKKRQLELYLPKFSIEGSYQLEKVLPSLGISNVFTSHADLSGISNHSNIQVSEMVHKAVVEVDESGTRAAAATGTIFTKRKARLNSQRLVFNRPFLMFIVDNNILFLGKVNRP
As to B1, the binding entry in assay [1] is on record as “binds”.

B2: PCI variant H11 (P4 A, P2 Q, P1′ Y) (protein)
chain: APSSRRDFTFDLYRALASAAPSQNIFFSPVSISMSLAMLSLGAGSSTKMQILEGLGLNLQKSSEKELHRGFQQLLQELNQPRDGFQLSLGNALFTDLVVDLQDTFVSAMKTLYLADTFPTNFRDSAGAMKQINDYVAKQTKGKIVDLLKNLDSNAVVIMVNYIFFKAKWETSFNHKGTQEQDFYVTSETVVRVPMMSREDQYHYLLDRNLSCRVVGVPYQGNATALFILPSEGKMQQVENGLSEKTLRKWLKMFKKRQLELYLPKFSIEGSYQLEKVLPSLGISNVFTSHADLSGISNHSNIQVSEMVHKAVVEVDESGTRAAAATGTIATQRYARLNSQRLVFNRPFLMFIVDNNILFLGKVNRP
Turning to B2, the binding entry in assay [2] is listed as “binds”.

These data come from US20160311887A1.
